Data source: PubChem BioAssay AID1259308 (NCATS, 2017)

Assay: 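Knock-downs that increase output of a recombinant reporter protein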 (primary screen)
Cells: human HEK293 embryonic kidney cells stably expressing firefly luciferase (HEK-CMV-Luc2-Hygro)
Reagent: single siRNA against human genes, 0.8 pmol siRNA per well
Timing: 72 h
Measurement: 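Reporter luminescence and viable-cell signal on separate replicate plates, given as percent of non-targeting control and median/MAD z-scores, plus per-cell luciferase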
Reading the numbers: total luciferase, z-score and total luciferase, % of control: higher = more reporter protein produced; luciferase per cell, z-score: higher = more reporter output per viable cell
Hit rule: 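Active when the median/MAD z-score for overall luciferase is greater than 3; a gene was taken forward for validation with new siRNAs if at least two of its three siRNAs passed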
Calls: active = raised luciferase; inactive = no rise
Shown is a random part of about 59,000 reagents. In the full data, about 1,510 (2.6%) are marked active. 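Calls use total luciferase alone and ignore viability, so some active siRNAs may act by altering cell number.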 Reagents against one gene are numbered here. Further read-outs or replicates are left out here. No sequences are given here.

gene | reagent no. | total luciferase, z-score | total luciferase, % of control | luciferase per cell, z-score | Call
NFS1 | 1 | -0.753 | 66.9 | -0.537 | inactive
NFS1 | 2 | 0.28 | 87.5 | -0.359 | inactive
NFS1 | 3 | 0.947 | 101 | 1.76 | inactive
LINC02909 | 1 | 0.919 | 100 | 0.00443 | inactive
LINC02909 | 2 | -0.375 | 74.4 | -0.0187 | inactive
LINC02909 | 3 | -0.222 | 77.5 | -0.501 | inactive
FRMD3 | 1 | -0.188 | 78.2 | -0.966 | inactive
FRMD3 | 2 | -0.567 | 70.6 | -0.404 | inactive
FRMD3 | 3 | -2.27 | 36.8 | -0.446 | inactive
ZNF45 | 1 | -0.0368 | 81.2 | -0.022 | inactive
ZNF45 | 2 | 0.873 | 99.2 | 1.15 | inactive
ZNF45 | 3 | 0.533 | 92.5 | 0.572 | inactive
GRPEL1P1 | 1 | 0.145 | 84.8 | 1.66 | inactive
GRPEL1P1 | 2 | 2.82 | 138 | 2.72 | inactive
GRPEL1P1 | 3 | 0.54 | 92.6 | -0.224 | inactive
PAK3 | 1 | 2.62 | 134 | 2.37 | inactive
PAK3 | 2 | -0.346 | 75 | 0.32 | inactive
PAK3 | 3 | 0.775 | 97.3 | 0.5 | inactive
CLRN3 | 1 | -1.55 | 51 | 0.843 | inactive
CLRN3 | 2 | 0.0377 | 82.6 | 0.0299 | inactive
CLRN3 | 3 | -0.136 | 79.2 | -0.483 | inactive
RHOXF1 | 1 | 1.11 | 104 | 2.9 | inactive
RHOXF1 | 2 | -0.577 | 70.4 | -1.16 | inactive
RHOXF1 | 3 | -0.73 | 67.4 | -0.802 | inactive
CEP72 | 1 | -0.615 | 69.7 | 0.965 | inactive
CEP72 | 2 | 2.22 | 126 | 1.25 | inactive
CEP72 | 3 | 1.5 | 112 | 0.2 | inactive
BPIFC | 1 | 0.555 | 92.9 | 1.4 | inactive
BPIFC | 2 | 0.393 | 89.7 | 0.216 | inactive
BPIFC | 3 | 0.0016 | 81.9 | -0.2 | inactive
NCKAP5 | 1 | 0.403 | 89.9 | 0.489 | inactive
NCKAP5 | 2 | -0.0357 | 81.2 | 0.351 | inactive
NCKAP5 | 3 | 0.0303 | 82.5 | -0.374 | inactive
GPA33 | 1 | 0.207 | 86 | -0.143 | inactive
GPA33 | 2 | 1.9 | 120 | 1.93 | inactive
GPA33 | 3 | -1.56 | 50.9 | -1.38 | inactive

Entries listed so far whose gene name begins with P or p:
gene | reagent no. | total luciferase, z-score | total luciferase, % of control | luciferase per cell, z-score | Call
PAK3 | 1 | 2.62 | 134 | 2.37 | inactive
PAK3 | 2 | -0.346 | 75 | 0.32 | inactive
PAK3 | 3 | 0.775 | 97.3 | 0.5 | inactive

Further reagents follow:
gene | reagent no. | total luciferase, z-score | total luciferase, % of control | luciferase per cell, z-score | Call
UTP6 | 1 | -1.37 | 54.7 | -1.62 | inactive
UTP6 | 2 | -0.256 | 76.8 | 0.0903 | inactive
UTP6 | 3 | -1.35 | 55.1 | -1.78 | inactive
ABHD11 | 1 | 0.688 | 95.6 | 0.791 | inactive
ABHD11 | 2 | -0.195 | 78 | 0.179 | inactive
ABHD11 | 3 | -2.87 | 24.8 | -2.78 | inactive
PRMT6 | 1 | 2.41 | 130 | 1.16 | inactive
PRMT6 | 2 | -0.415 | 73.6 | -0.336 | inactive
PRMT6 | 3 | -0.0429 | 81 | -0.738 | inactive
ATP11C | 1 | 0.401 | 89.9 | 0.962 | inactive
ATP11C | 2 | -0.339 | 75.1 | 0.271 | inactive
ATP11C | 3 | -1.05 | 61 | -1.22 | inactive
RPL10P17 | 1 | 1.32 | 108 | 1.16 | inactive
RPL10P17 | 2 | 0.695 | 95.7 | 0.611 | inactive
RPL10P17 | 3 | 1.04 | 103 | 0.74 | inactive
ELAVL3 | 1 | 2.04 | 123 | 1.82 | inactive
ELAVL3 | 2 | 0.0145 | 82.2 | -0.348 | inactive
ELAVL3 | 3 | 0.825 | 98.3 | 0.108 | inactive
MORC4 | 1 | 1.11 | 104 | 0.4 | inactive
MORC4 | 2 | -0.783 | 66.3 | -1.56 | inactive
MORC4 | 3 | -0.332 | 75.3 | -1.24 | inactive
